PubChem BioAssay AID1224830 | NIAID | 2016

Purpose: 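Regulators of TLR4 signalling towards TNF-alpha in macrophage-like cells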 (primary screen)
System: human THP-1 monocytic leukaemia cells, TNF dual-luciferase reporter clone, PMA-differentiated to macrophage-like cells
Reagent: siRNA pool against human genes, 50 nM
Duration: LPS for 4 h, given about 3 days after siRNA transfection
Conditions: bacterial LPS (TLR4 ligand), 10 ng/ml
Measured: 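TNF firefly reporter luminescence divided by renilla, normalised to the plate median, then turned into a robust z-score for each replicate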
Reading the numbers: TNF reporter robust z-score: higher = stronger TNF reporter response to LPS
Rule for the call: 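Each well counts as active if its z-score is over 2.8 or under -1.5; controls are left without a call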
In all, the deposit lists about 18,000 reagents; this is a random part of them. Of all reagents, about 2,900 (16%) were called active. 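Calls are made per well; low scores hint the gene aids the LPS response, high scores that it dampens it.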 Repeated entries: four replicate wells of each siRNA pool.

PMVK (phosphomevalonate kinase): TNF reporter robust z-score = -1.08; Outcome = inactive
PMVK (phosphomevalonate kinase): TNF reporter robust z-score = 0.05; Outcome = inactive
PMVK (phosphomevalonate kinase): TNF reporter robust z-score = -0.4; Outcome = inactive
PMVK (phosphomevalonate kinase): TNF reporter robust z-score = 0.79; Outcome = inactive
CXCL14 (C-X-C motif chemokine ligand 14): TNF reporter robust z-score = 0.11; Outcome = inactive
CXCL14 (C-X-C motif chemokine ligand 14): TNF reporter robust z-score = 0.7; Outcome = inactive
CXCL14 (C-X-C motif chemokine ligand 14): TNF reporter robust z-score = -1.27; Outcome = inactive
CXCL14 (C-X-C motif chemokine ligand 14): TNF reporter robust z-score = -0.69; Outcome = inactive
AGMAT (agmatinase (putative)): TNF reporter robust z-score = 0.3; Outcome = inactive
AGMAT (agmatinase (putative)): TNF reporter robust z-score = -0.74; Outcome = inactive
AGMAT (agmatinase (putative)): TNF reporter robust z-score = 0.57; Outcome = inactive
AGMAT (agmatinase (putative)): TNF reporter robust z-score = 1.27; Outcome = inactive
SRCIN1 (SRC kinase signaling inhibitor 1): TNF reporter robust z-score = -0.66; Outcome = inactive
SRCIN1 (SRC kinase signaling inhibitor 1): TNF reporter robust z-score = -0.76; Outcome = inactive
SRCIN1 (SRC kinase signaling inhibitor 1): TNF reporter robust z-score = -1.05; Outcome = inactive
SRCIN1 (SRC kinase signaling inhibitor 1): TNF reporter robust z-score = -0.57; Outcome = inactive
VASH2 (vasohibin 2): TNF reporter robust z-score = 0.47; Outcome = inactive
VASH2 (vasohibin 2): TNF reporter robust z-score = 0.06; Outcome = inactive
VASH2 (vasohibin 2): TNF reporter robust z-score = -0.05; Outcome = inactive
VASH2 (vasohibin 2): TNF reporter robust z-score = 0.12; Outcome = inactive
ENPP4 (ectonucleotide pyrophosphatase/phosphodiesterase 4): TNF reporter robust z-score = -0.07; Outcome = inactive
ENPP4 (ectonucleotide pyrophosphatase/phosphodiesterase 4): TNF reporter robust z-score = -0.18; Outcome = inactive
ENPP4 (ectonucleotide pyrophosphatase/phosphodiesterase 4): TNF reporter robust z-score = 0.15; Outcome = inactive
ENPP4 (ectonucleotide pyrophosphatase/phosphodiesterase 4): TNF reporter robust z-score = -1.04; Outcome = inactive
LPCAT2 (lysophosphatidylcholine acyltransferase 2): TNF reporter robust z-score = -0.65; Outcome = inactive
LPCAT2 (lysophosphatidylcholine acyltransferase 2): TNF reporter robust z-score = -0.32; Outcome = inactive
LPCAT2 (lysophosphatidylcholine acyltransferase 2): TNF reporter robust z-score = -0.89; Outcome = inactive
LPCAT2 (lysophosphatidylcholine acyltransferase 2): TNF reporter robust z-score = -0.49; Outcome = inactive
RUSC1 (RUN and SH3 domain containing 1): TNF reporter robust z-score = -0.99; Outcome = inactive
RUSC1 (RUN and SH3 domain containing 1): TNF reporter robust z-score = 0.11; Outcome = inactive
RUSC1 (RUN and SH3 domain containing 1): TNF reporter robust z-score = -0.04; Outcome = inactive
RUSC1 (RUN and SH3 domain containing 1): TNF reporter robust z-score = -0.5; Outcome = inactive
OR6T1 (olfactory receptor family 6 subfamily T member 1): TNF reporter robust z-score = -0.47; Outcome = inactive
OR6T1 (olfactory receptor family 6 subfamily T member 1): TNF reporter robust z-score = -0.55; Outcome = inactive
OR6T1 (olfactory receptor family 6 subfamily T member 1): TNF reporter robust z-score = -0.53; Outcome = inactive
OR6T1 (olfactory receptor family 6 subfamily T member 1): TNF reporter robust z-score = 0.1; Outcome = inactive
ACE (angiotensin I converting enzyme): TNF reporter robust z-score = -1.15; Outcome = inactive
ACE (angiotensin I converting enzyme): TNF reporter robust z-score = -1.26; Outcome = inactive
ACE (angiotensin I converting enzyme): TNF reporter robust z-score = -1.09; Outcome = inactive
ACE (angiotensin I converting enzyme): TNF reporter robust z-score = -1.16; Outcome = inactive
STOX2 (storkhead box 2): TNF reporter robust z-score = -1.49; Outcome = inactive
STOX2 (storkhead box 2): TNF reporter robust z-score = -0.71; Outcome = inactive
STOX2 (storkhead box 2): TNF reporter robust z-score = -0.55; Outcome = inactive
STOX2 (storkhead box 2): TNF reporter robust z-score = -1.04; Outcome = inactive
DNMT3L (DNA methyltransferase 3 like): TNF reporter robust z-score = 0.48; Outcome = inactive
DNMT3L (DNA methyltransferase 3 like): TNF reporter robust z-score = 0.34; Outcome = inactive
DNMT3L (DNA methyltransferase 3 like): TNF reporter robust z-score = 0.18; Outcome = inactive
DNMT3L (DNA methyltransferase 3 like): TNF reporter robust z-score = 2.16; Outcome = inactive
PIGG: TNF reporter robust z-score = 1.08; Outcome = inactive
PIGG: TNF reporter robust z-score = -0.34; Outcome = inactive
PIGG: TNF reporter robust z-score = -0.95; Outcome = inactive
PIGG: TNF reporter robust z-score = -0.21; Outcome = inactive
NODAL (nodal growth differentiation factor): TNF reporter robust z-score = 0.35; Outcome = inactive
NODAL (nodal growth differentiation factor): TNF reporter robust z-score = 0.51; Outcome = inactive
NODAL (nodal growth differentiation factor): TNF reporter robust z-score = 0.71; Outcome = inactive
NODAL (nodal growth differentiation factor): TNF reporter robust z-score = 0.78; Outcome = inactive
NFKBID (NFKB inhibitor delta): TNF reporter robust z-score = 0.05; Outcome = inactive
NFKBID (NFKB inhibitor delta): TNF reporter robust z-score = 0.28; Outcome = inactive
NFKBID (NFKB inhibitor delta): TNF reporter robust z-score = 0.08; Outcome = inactive
NFKBID (NFKB inhibitor delta): TNF reporter robust z-score = 1.6; Outcome = inactive
